According to the supplement of paper PMC10849652:
Some of the results follow.

The chains behind the UniProt entries cited, without tags or fusion partners. Where a name states a change or a piece, a line headed by the entry shows the natural chain unless it says otherwise.
UniProt O75390: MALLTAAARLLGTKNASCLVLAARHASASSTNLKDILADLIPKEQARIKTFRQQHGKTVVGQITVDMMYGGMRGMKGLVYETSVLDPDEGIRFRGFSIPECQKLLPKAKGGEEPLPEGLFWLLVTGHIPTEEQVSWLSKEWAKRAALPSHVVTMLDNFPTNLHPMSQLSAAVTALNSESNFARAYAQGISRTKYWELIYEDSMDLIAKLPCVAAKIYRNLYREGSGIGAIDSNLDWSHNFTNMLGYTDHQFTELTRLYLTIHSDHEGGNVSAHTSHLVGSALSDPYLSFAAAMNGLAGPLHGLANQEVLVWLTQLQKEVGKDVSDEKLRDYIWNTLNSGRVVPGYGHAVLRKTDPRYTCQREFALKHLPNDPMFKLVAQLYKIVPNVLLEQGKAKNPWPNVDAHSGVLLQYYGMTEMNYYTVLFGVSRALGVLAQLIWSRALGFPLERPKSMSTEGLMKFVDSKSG
UniProt E9PJD7, whole entry, looked up: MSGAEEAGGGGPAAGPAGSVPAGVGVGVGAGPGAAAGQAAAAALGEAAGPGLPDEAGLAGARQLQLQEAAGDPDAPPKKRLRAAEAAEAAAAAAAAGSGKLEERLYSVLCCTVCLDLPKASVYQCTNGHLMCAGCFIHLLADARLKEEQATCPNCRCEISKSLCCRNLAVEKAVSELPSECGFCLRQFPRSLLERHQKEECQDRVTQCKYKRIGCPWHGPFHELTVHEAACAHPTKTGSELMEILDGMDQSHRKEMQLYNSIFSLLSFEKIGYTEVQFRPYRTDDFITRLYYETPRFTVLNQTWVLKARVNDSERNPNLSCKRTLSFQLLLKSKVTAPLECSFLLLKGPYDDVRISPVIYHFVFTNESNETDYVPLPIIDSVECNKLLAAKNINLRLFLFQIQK
UniProt Q08257: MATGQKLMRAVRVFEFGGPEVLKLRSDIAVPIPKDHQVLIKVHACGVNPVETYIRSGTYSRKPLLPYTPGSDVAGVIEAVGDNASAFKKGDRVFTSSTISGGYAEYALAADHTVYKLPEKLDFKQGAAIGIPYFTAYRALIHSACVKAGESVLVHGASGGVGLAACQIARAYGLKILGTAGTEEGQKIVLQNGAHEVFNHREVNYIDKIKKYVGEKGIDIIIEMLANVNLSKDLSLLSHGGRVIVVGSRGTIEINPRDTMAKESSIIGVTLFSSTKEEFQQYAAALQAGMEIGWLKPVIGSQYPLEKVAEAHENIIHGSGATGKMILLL
UniProt P41240: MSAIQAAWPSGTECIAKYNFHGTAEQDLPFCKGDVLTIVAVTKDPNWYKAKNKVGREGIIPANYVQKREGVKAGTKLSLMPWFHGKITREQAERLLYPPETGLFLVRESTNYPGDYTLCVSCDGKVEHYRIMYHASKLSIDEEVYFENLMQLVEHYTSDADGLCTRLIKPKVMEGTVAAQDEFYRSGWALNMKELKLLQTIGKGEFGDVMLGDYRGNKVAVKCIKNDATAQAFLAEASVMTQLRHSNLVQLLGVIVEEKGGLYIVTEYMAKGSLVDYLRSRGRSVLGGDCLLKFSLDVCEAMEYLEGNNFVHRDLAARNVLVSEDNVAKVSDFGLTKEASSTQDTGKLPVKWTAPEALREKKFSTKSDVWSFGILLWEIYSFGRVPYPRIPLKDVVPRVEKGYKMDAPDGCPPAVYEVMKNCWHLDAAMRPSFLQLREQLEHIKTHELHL
UniProt Q53ET0: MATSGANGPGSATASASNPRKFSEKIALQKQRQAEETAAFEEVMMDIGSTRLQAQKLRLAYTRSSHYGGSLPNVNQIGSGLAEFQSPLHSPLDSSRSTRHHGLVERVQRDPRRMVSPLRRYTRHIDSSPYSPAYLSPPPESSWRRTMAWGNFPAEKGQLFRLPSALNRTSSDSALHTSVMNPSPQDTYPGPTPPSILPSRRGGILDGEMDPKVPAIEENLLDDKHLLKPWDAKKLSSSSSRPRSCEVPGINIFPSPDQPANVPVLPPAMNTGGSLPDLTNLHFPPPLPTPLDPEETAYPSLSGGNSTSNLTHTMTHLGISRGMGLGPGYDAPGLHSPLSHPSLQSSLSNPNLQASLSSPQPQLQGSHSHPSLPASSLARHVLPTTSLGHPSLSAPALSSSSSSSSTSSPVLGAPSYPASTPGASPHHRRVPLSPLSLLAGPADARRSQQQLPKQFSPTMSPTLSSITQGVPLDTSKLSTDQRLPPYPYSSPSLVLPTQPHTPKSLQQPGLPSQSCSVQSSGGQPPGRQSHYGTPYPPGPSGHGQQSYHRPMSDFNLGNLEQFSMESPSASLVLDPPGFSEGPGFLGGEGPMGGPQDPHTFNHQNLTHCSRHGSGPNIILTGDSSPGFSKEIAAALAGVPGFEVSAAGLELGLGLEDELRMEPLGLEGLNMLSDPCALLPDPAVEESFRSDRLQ
UniProt Q13619, whole entry, looked up: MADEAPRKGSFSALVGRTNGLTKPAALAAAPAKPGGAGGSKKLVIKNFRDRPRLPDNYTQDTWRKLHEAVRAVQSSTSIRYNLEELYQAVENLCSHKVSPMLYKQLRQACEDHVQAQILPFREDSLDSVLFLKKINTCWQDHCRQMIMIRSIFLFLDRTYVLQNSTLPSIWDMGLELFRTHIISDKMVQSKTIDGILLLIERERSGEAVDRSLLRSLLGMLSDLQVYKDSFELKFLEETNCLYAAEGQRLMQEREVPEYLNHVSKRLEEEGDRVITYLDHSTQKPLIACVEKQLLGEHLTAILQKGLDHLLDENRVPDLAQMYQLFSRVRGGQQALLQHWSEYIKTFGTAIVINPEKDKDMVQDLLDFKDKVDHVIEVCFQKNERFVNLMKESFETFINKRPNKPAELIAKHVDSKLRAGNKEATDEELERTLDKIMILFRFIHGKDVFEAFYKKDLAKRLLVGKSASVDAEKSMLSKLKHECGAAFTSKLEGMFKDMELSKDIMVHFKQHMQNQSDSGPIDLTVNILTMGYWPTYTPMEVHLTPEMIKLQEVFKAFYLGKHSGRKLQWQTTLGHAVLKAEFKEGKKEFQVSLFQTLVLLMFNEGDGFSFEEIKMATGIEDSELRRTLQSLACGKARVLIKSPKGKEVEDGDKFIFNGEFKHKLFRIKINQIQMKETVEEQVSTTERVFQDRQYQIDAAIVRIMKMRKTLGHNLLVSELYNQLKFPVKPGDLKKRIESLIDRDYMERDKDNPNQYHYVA
UniProt Q96C57: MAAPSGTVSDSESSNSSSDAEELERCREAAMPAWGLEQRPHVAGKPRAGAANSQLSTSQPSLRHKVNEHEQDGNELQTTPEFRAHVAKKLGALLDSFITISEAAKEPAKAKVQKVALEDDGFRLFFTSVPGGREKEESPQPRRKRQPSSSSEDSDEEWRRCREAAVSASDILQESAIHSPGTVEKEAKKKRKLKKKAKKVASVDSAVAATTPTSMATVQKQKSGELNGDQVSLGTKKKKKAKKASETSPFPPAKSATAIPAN
UniProt P55060: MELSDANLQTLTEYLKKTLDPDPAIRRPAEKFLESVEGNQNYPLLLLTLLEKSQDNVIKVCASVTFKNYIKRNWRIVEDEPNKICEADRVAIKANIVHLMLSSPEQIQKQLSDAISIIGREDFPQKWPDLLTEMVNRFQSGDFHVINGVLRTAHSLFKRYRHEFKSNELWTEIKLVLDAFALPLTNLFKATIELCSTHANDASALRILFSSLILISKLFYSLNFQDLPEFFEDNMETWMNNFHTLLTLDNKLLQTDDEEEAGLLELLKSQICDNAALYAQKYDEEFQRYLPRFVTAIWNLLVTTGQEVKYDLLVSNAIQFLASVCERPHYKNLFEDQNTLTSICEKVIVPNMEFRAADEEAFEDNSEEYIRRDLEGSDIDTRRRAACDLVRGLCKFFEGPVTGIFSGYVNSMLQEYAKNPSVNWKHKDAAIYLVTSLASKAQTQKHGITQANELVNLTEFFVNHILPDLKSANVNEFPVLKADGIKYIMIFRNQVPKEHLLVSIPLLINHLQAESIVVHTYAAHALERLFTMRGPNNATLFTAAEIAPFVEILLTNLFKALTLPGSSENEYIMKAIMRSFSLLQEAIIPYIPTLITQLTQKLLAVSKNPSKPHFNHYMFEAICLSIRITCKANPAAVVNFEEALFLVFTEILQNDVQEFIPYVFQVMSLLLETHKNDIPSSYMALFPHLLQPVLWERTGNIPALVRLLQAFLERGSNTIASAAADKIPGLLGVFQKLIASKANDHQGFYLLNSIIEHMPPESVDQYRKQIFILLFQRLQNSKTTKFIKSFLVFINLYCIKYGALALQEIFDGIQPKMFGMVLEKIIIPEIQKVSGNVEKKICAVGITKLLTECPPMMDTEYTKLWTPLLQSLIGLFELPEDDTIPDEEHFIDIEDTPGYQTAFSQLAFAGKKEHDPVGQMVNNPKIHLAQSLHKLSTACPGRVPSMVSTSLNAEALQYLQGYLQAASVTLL
UniProt Q8NBI2: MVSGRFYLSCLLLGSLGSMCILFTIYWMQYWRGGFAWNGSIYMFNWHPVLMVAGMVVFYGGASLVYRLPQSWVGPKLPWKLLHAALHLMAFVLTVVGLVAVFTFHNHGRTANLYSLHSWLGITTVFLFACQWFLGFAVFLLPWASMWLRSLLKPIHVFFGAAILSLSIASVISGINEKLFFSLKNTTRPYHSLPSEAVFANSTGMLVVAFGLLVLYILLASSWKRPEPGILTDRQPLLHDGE
UniProt Q8WYA6: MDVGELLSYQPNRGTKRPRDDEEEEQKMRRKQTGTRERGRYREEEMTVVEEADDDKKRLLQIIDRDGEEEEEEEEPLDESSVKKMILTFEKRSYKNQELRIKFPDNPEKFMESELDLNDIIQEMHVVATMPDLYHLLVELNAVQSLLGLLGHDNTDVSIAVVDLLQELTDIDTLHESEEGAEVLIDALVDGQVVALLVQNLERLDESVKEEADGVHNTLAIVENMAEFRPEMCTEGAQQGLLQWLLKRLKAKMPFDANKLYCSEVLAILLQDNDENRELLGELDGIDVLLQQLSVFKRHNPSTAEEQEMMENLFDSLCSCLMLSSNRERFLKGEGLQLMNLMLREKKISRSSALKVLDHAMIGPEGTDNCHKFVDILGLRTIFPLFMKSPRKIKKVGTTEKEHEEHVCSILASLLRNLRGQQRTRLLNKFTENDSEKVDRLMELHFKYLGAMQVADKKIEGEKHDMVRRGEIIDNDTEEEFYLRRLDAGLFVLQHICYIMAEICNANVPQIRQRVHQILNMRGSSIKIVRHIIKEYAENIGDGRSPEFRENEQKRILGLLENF
UniProt Q9UHQ9: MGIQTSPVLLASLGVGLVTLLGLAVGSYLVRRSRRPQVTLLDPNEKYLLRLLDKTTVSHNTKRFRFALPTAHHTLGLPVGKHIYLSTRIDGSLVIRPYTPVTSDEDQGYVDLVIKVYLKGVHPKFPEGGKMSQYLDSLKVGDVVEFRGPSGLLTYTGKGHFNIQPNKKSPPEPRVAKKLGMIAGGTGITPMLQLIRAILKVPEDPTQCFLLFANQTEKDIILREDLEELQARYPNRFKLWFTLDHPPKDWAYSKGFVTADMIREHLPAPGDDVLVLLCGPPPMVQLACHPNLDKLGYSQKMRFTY
UniProt Q69YN2: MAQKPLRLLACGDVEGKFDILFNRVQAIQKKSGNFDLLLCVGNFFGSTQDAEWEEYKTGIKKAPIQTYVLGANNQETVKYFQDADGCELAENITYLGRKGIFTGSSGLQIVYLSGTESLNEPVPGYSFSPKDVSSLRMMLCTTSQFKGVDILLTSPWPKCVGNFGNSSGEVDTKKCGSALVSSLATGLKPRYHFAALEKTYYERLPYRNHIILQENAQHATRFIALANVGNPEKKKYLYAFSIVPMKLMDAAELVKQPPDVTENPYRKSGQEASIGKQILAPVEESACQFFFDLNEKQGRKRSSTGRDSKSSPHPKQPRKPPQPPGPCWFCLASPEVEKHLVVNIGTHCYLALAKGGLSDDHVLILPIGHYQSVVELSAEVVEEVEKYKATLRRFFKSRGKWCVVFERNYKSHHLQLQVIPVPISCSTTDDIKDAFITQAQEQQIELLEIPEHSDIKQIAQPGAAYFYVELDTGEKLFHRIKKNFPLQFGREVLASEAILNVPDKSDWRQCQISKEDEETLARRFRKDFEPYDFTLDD
UniProt P50461: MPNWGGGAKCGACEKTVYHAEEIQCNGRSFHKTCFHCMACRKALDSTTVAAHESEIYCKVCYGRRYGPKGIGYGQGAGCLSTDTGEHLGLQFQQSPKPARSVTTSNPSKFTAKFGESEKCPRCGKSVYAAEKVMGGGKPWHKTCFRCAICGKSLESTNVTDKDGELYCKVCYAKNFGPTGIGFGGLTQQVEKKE
UniProt P46109: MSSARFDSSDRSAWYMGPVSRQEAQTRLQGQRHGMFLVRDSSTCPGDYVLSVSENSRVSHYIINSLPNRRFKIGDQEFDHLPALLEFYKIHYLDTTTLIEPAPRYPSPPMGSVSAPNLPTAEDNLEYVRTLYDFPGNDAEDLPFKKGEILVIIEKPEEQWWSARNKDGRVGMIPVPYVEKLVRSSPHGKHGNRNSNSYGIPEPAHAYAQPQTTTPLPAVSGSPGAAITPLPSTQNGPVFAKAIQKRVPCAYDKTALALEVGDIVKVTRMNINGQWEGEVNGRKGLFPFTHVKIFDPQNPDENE

Columns and labels:
Experiment in all cases: log2 fold change, soluble protein after heating vs DMSO (PISA); higher = thermal stabilisation; K562 lysate, 10 uM; active = over 0.2 and 3.5 SD of the protein, either way, in both replicates (recomputed)
ibrutinib = compound: C=CC(=O)N1CCC[C@@H](n2nc(-c3ccc(Oc4ccccc4)cc3)c3c(N)ncnc32)C1 [ibrutinib]
How it was run: (§1)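 The values are log-two fold changes in thermal stability compared with solvent controls and come from duplicates. They were obtained by TMTpro 16plex LC-MS/MS, with channel sums equalised, on the supernatant after 21,000xg for 90 min. That supernatant came from crude K562 extract at 1 mg/mL protein treated with 10 μM compound for 30 min, heated for 3 min across 48°C-58°C, pooled and brought to 0.5% NP-40 at 4°C.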

[1] = compound: CC(=O)c1cnc2ccc(-c3cc(Cl)c(O)c(Cl)c3)nc2c1N[C@H]1CC[C@H](CN(C)C)CC1
How it was run: as §1

ralimetinib = compound: CC(C)(C)Cn1c(N)nc2ccc(-c3[nH]c(C(C)(C)C)nc3-c3ccc(F)cc3)nc21 [ralimetinib]
How it was run: as §1

[2] = compound: CC(C)(O)CC(=O)NCCn1ccc2ncnc(Nc3ccc(Oc4cccc(C(F)(F)F)c4)c(Cl)c3)c21
How it was run: as §1

[3] = compound: CC(C)C1=C2N=C(C=C(N2N=C1)NCC3=CC=CC=C3)NCCCCCCN
How it was run: as §1

[4] = compound: CC1=C(C(CC(=O)N1)C2=CC=C(C=C2)C(F)(F)F)C(=O)NC3=C(C=C4C(=C3)C=NN4)F
How it was run: as §1

[5] = compound: CC1=C(C2=C(C=C1)C(=O)C3=CC=CC=C3N2CCCN)C
How it was run: as §1

[6] = compound: CC1=C(C=C(C=C1)NC(=O)C2=CC(=CC=C2)C(C)(C)C#N)NC3=CC4=C(C=C3)N=CN(C4=O)C
How it was run: as §1

[7] = compound: CC1=C(C=C(C=C1)NC(=O)C2=CC(=CC=C2)N(C)C)NC(=O)C3=CC=C(C=C3)O
How it was run: as §1

[8] = compound: CC1=CC=C(C=C1)SC2=C3C=C(SC3=CN=C2)C(=O)N
How it was run: as §1

Row | Target | log2 fold change (ibrutinib) | log2 fold change [1] | log2 fold change (ralimetinib) | log2 fold change [2] | log2 fold change [3] | log2 fold change [4] | log2 fold change [5] | log2 fold change [6] | log2 fold change [7] | log2 fold change [8]
1 | CTTN (UniProt Q14247) | inactive: 0.007 | inactive: 0.014 | inactive: 0.026 | inactive: 0.075 | inactive: -0.062 | inactive: 0.007 | inactive: -0.021 | inactive: -0.132 | inactive: -0.075 | inactive: -0.001
2 | CS (UniProt O75390) | inactive: -0.004 | inactive: 0.009 | inactive: -0.002 | inactive: 0.007 | inactive: -0.009 | inactive: -0.022 | inactive: -0.018 | inactive: 0.019 | inactive: 0.013 | inactive: 0.015
3 | CUL4B (UniProt Q13620) | inactive: -0.004 | inactive: -0.009 | inactive: 0.017 | inactive: -0.023 | inactive: -0.019 | inactive: -0.028 | inactive: -0.011 | inactive: 0.003 | inactive: -0.006 | inactive: -0.009
4 | CSRP1 (UniProt P21291) | inactive: -0.01 | inactive: -0.023 | inactive: 0.001 | inactive: -0.002 | inactive: -0.051 | inactive: -0.045 | inactive: -0.023 | inactive: 0.056 | inactive: -0.017 | inactive: -0.026
5 | CUTC (UniProt Q9NTM9) | inactive: 0.047 | inactive: 0.004 | inactive: -0.018 | inactive: 0.006 | inactive: -0.022 | inactive: -0.064 | inactive: -0.044 | inactive: 0.004 | inactive: 0.002 | inactive: -0.021
6 | CYHR1 (UniProt E9PJD7) | inactive: -0.029 | inactive: 0.028 | inactive: 0.005 | inactive: -0.062 | inactive: 0.015 | inactive: 0.016 | inactive: 0.02 | inactive: 0.091 | inactive: -0.023 | inactive: 0.052
7 | CYB5R2 (UniProt Q6BCY4) | inactive: 0.021 | inactive: 0.016 | inactive: 0.018 | inactive: -0.04 | inactive: 0.01 | inactive: -0.01 | inactive: -0.027 | inactive: 0.021 | inactive: 0.008 | inactive: -0.02
8 | CYB5R3 isoform 3 (UniProt P00387) | inactive: -0.021 | inactive: -0.034 | inactive: -0.005 | inactive: -0.035 | inactive: -0.015 | inactive: 0.033 | inactive: 0.035 | inactive: 0.046 | inactive: 0.015 | inactive: -0.009
9 | CTNNB1 (UniProt P35222) | inactive: -0.05 | inactive: 0.036 | inactive: 0.018 | inactive: 0.023 | inactive: -0.044 | inactive: 0.024 | inactive: -0.074 | inactive: 0.034 | inactive: -0.001 | inactive: -0.018
10 | CRYZ (UniProt Q08257) | inactive: -0.017 | inactive: -0.008 | inactive: 0 | inactive: -0.009 | inactive: 0.002 | inactive: -0.023 | inactive: 0.019 | inactive: 0.029 | inactive: -0.016 | inactive: -0.025
11 | CRPPA (UniProt A4D126) | inactive: 0.005 | inactive: 0.006 | inactive: 0.003 | inactive: -0.036 | inactive: -0.007 | inactive: -0.018 | inactive: -0.009 | inactive: 0.02 | inactive: -0.015 | inactive: -0.012
12 | CSK (UniProt P41240) | active: 0.891 | inactive: 0.242 | inactive: 0 | inactive: 0.181 | inactive: 0 | inactive: -0.086 | inactive: -0.04 | active: 0.626 | inactive: -0.015 | inactive: -0.054
13 | CRTC2 (UniProt Q53ET0) | inactive: -0.069 | inactive: -0.108 | inactive: 0.01 | inactive: -0.026 | inactive: 0.018 | inactive: 0 | inactive: -0.016 | inactive: 0.007 | inactive: 0.032 | inactive: -0.136
14 | CST3 (UniProt P01034) | inactive: 0.019 | inactive: 0.042 | inactive: -0.054 | inactive: 0.027 | inactive: 0.054 | inactive: 0.683 | inactive: -0.016 | inactive: -0.054 | inactive: 0.046 | inactive: -0.035
15 | CTPS2 (UniProt Q9NRF8) | inactive: 0.021 | inactive: 0.006 | inactive: 0.017 | inactive: -0.026 | inactive: -0.011 | inactive: 0.008 | inactive: -0.004 | inactive: 0.009 | inactive: 0.005 | inactive: -0.009
16 | CUL4A (UniProt Q13619) | inactive: 0.017 | inactive: -0.004 | inactive: -0.012 | inactive: -0.022 | inactive: 0.004 | inactive: -0.004 | inactive: -0.02 | inactive: 0.012 | inactive: 0.015 | inactive: 0.002
17 | CWC22 (UniProt Q9HCG8) | inactive: 0.027 | inactive: -0.007 | inactive: 0.007 | inactive: -0.002 | inactive: -0.005 | inactive: 0.06 | inactive: 0 | inactive: -0.002 | inactive: 0.028 | inactive: -0.009
18 | CUSTOS (UniProt Q96C57) | inactive: 0.055 | inactive: 0.015 | inactive: 0.041 | inactive: -0.01 | inactive: 0.029 | inactive: 0.012 | inactive: -0.017 | inactive: 0.018 | inactive: -0.03 | inactive: -0.013
19 | CREBBP (UniProt Q92793) | inactive: 0.017 | inactive: 0.07 | inactive: -0.014 | inactive: 0.011 | inactive: -0.019 | inactive: -0.008 | inactive: 0.018 | inactive: 0.036 | inactive: -0.002 | inactive: 0.046
20 | CSE1L (UniProt P55060) | inactive: -0.019 | inactive: 0.007 | inactive: 0.003 | inactive: -0.057 | inactive: -0.025 | inactive: -0.022 | inactive: 0.002 | inactive: -0.005 | inactive: 0.015 | inactive: 0.019
21 | CYB561A3 isoform 2 (UniProt Q8NBI2) | inactive: -0.002 | inactive: -0.033 | inactive: 0.055 | inactive: 0.166 | inactive: -0.011 | inactive: 0.051 | inactive: -0.032 | inactive: 0.14 | inactive: 0.028 | inactive: -0.006
22 | CT55 (UniProt Q8WUE5) | inactive: -0.029 | inactive: -0.082 | inactive: -0.072 | inactive: -0.069 | inactive: -0.01 | inactive: 0.057 | inactive: 0.035 | inactive: -0.051 | inactive: 0.028 | inactive: -0.022
23 | CREG1 (UniProt O75629) | inactive: 0.07 | inactive: 0.018 | inactive: 0.044 | inactive: -0.02 | inactive: 0.018 | inactive: 0.084 | inactive: 0.008 | inactive: -0.045 | inactive: -0.029 | inactive: 0.051
24 | CSTF2 (UniProt P33240) | active: 0.244 | inactive: -0.001 | inactive: 0.025 | inactive: -0.033 | inactive: -0.022 | inactive: -0.033 | inactive: -0.02 | inactive: -0.011 | inactive: 0.052 | inactive: 0.011
25 | CTNNBL1 (UniProt Q8WYA6) | inactive: 0 | inactive: 0.047 | inactive: -0.095 | inactive: -0.169 | inactive: 0.017 | inactive: -0.051 | inactive: -0.04 | inactive: 0.015 | inactive: 0.056 | inactive: 0.01
26 | CTBP2 isoform 2 (UniProt P56545) | inactive: 0.056 | inactive: -0.016 | inactive: 0.003 | inactive: 0.015 | inactive: -0.005 | inactive: -0.023 | inactive: 0.011 | inactive: 0.044 | inactive: 0.026 | inactive: -0.034
27 | CYB5R1 (UniProt Q9UHQ9) | inactive: -0.051 | inactive: 0.006 | inactive: 0.051 | inactive: -0.097 | inactive: 0.01 | inactive: -0.071 | inactive: 0.012 | inactive: -0.038 | inactive: 0.023 | inactive: -0.012
28 | CWF19L1 (UniProt Q69YN2) | inactive: 0 | inactive: -0.026 | inactive: 0 | inactive: 0.014 | inactive: 0.019 | inactive: -0.021 | inactive: 0.037 | inactive: -0.031 | inactive: -0.001 | inactive: -0.005
29 | CSRP3 (UniProt P50461) | inactive: 0.096 | inactive: -0.047 | inactive: 0.034 | inactive: -0.042 | inactive: -0.026 | inactive: -0.039 | inactive: 0.016 | inactive: 0.146 | inactive: -0.042 | inactive: 0.004
30 | CRKL (UniProt P46109) | inactive: 0.006 | inactive: 0.003 | inactive: -0.011 | inactive: -0.045 | inactive: 0.002 | inactive: -0.017 | inactive: -0.007 | inactive: 0.023 | inactive: -0.001 | inactive: -0.015

Two entries from above, as tab-separated lines.
Row	Target	log2 fold change (ibrutinib)	log2 fold change [1]	log2 fold change (ralimetinib)	log2 fold change [2]	log2 fold change [3]	log2 fold change [4]	log2 fold change [5]	log2 fold change [6]	log2 fold change [7]	log2 fold change [8]
3	CUL4B (UniProt Q13620)	inactive: -0.004	inactive: -0.009	inactive: 0.017	inactive: -0.023	inactive: -0.019	inactive: -0.028	inactive: -0.011	inactive: 0.003	inactive: -0.006	inactive: -0.009
4	CSRP1 (UniProt P21291)	inactive: -0.01	inactive: -0.023	inactive: 0.001	inactive: -0.002	inactive: -0.051	inactive: -0.045	inactive: -0.023	inactive: 0.056	inactive: -0.017	inactive: -0.026
